Experimental data from PubChem BioAssay AID2685 (National Center for Advancing Translational Sciences (NCATS), 2010).
This is one part of the list. These are further read-outs of the screen, such as a control signal, another cell line or another target. No call is given for them. Compounds called inactive in the main read-out are mostly missing here. Words in brackets tell the shape of the fitted curve; partial curves, single points and poor fits give uncertain potencies.

Test: qHTS Assay for Lipid Storage Modulators in Drosophila S3 Cells;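 as to cell number change: cells counted by Cell Tracker Red CMTPX staining in the red channel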
Conditions: BODIPY lipid droplet fluorescence, 18-24 h; for cell number change: measured here: cell count max response, cells fed with added oleic acid
Method in brief: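 Drosophila S3 cells got compounds at several concentrations plus oleic acid (400 uM solution). Laser-scanning cytometry with 488 nm excitation read lipid droplets at 500-530 nm and cells at 575-640 nm. Percent activity was relative to 20 uM Triacsin C.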

[1] = measured here: lipid fluorescence (Fed channel) AC50, cells fed with added oleic acid
[2] = measured here: cell number channel AC50, cells fed with added oleic acid

For `S=C(NCc1ccccc1)NCc1ccccc1Cl`, the cell number change was 16.2% and the AC50 [1] was 6.51 µM [rising, single point].

With `COc1ccccc1C1N(c2cc(Cl)ccc2OC)C(=O)C2CCCN21` (stereo unspecified) the cell number change was -26.6% and the AC50 [1] was 0.651 µM [falling, full curve].

With `Cn1c2ccccc2c2nnc(SCC(=O)NCc3ccoc3)nc21` the cell number change was 31.2% and the AC50 [2] was 29.1 µM [rising, single point].

For `CCCc1cc2c(OC(=O)CC)c(-c3ccc(C(=O)OCC)o3)c(=O)oc2cc1OC`, the cell number change was -47.4%, the AC50 [2] was 0.326 µM [falling, full curve] and the AC50 [1] was 0.00517 µM [falling, full curve, poor fit].

With `O=C(NN1CCCCC1)c1cccc2ccccc12` the cell number change was 105% and the AC50 [2] was 0.13 µM [rising, full curve, poor fit].

For `CCn1c(=O)c(C(=O)CN2CCN(Cc3ccc4c(c3)OCO4)CC2)c(N)n(Cc2ccccc2)c1=O`, the cell number change was 13.3%.

With `CCOC(=O)c1cccc(NC(=O)Nc2ccc3c(c2)C(=O)OC3)c1` the cell number change was 16.5% and the AC50 [1] was 7.31 µM [rising, partial curve].

With `CCc1cc2c(COC(=O)c3cccc(S(C)(=O)=O)c3)cc(=O)oc2cc1O` the cell number change was 10.3% and the AC50 [1] was 29.1 µM [falling, single point].

For `CCCCCc1cc(=O)oc2c(C(CCN3CCCC3)c3cc(OC)c(OC)c(OC)c3)c(OC)cc(OC)c12` (stereo unspecified), the cell number change was -23.2% and the AC50 [1] was 16.4 µM [falling, single point].

In the case of `COc1ccc2ncc(S(=O)(=O)c3ccccc3)c(N3CCN(c4ccccc4)CC3)c2c1`, the cell number change is reported as 0.0836% and the AC50 [1] is reported as 6.51 µM [rising, single point].

For `COc1cc([N+](=O)[O-])ccc1NC(=S)Nc1cccc(C(=O)O)c1`, the AC50 [1] was 10.3 µM [rising, partial curve, poor fit].

`O=C(NCCC1=CCCCC1)c1cc(-c2ccncc2)nc2ccccc12` gave a cell number change of -44.7%.

For `O=C(O)c1sc2cc(C(F)(F)F)cnc2c1-c1ccccc1`, the cell number change was 6.32% and the AC50 [1] was 0.291 µM [rising, full curve].

In the case of `O=C(COC(=O)c1cn(-c2ccccc2)nc1-c1cccs1)NC1CC1`, the cell number change is reported as 152%, the AC50 [2] is reported as 20.6 µM [rising, partial curve] and the AC50 [1] is reported as 20.6 µM [rising, partial curve].

In the case of `COCc1ccc(C(=O)N2CCCC(CCC(=O)NCc3ccccc3F)C2)o1` (stereo unspecified), the cell number change is reported as -21.8% and the AC50 [1] is reported as 0.731 µM [falling, partial curve, poor fit].

For `COCCn1c(-c2ccc(OC)cc2)nc2ccccc21`, the cell number change was 5.17% and the AC50 [1] was 0.58 µM [falling, single point].

With `CC(=O)c1c(C)nc(-c2ccccc2)n1O` the cell number change was -18% and the AC50 [1] was 6.51 µM [falling, single point].

With `O=C(CSC1CS(=O)(=O)c2cc([N+](=O)[O-])ccc21)NNC(=O)c1ccc(Cl)cc1` (stereo unspecified) the cell number change was 18.4% and the AC50 [1] was 29.1 µM [rising, single point].

In the case of `Cc1cc(C(F)(F)F)cc(NNC(=O)NC(=O)c2ccc(Cl)cc2)n1`, the cell number change is reported as -13.4%.

For `COc1ccc(NC(=O)CSc2nnc(CNC(=O)c3ccco3)n2-c2ccccc2OC)cc1`, the cell number change was 31.6%, the AC50 [2] was 20.6 µM [rising, partial curve, poor fit] and the AC50 [1] was 29.1 µM [rising, single point].

For `CCN(CC)c1ccc(/C=N/NC(=O)CNC(=O)C2COc3ccccc3O2)c(O)c1` (stereo unspecified), the AC50 [1] was 25.1 µM [rising, single point].

In the case of `Cc1ccc(CN(C(=O)Cn2nnc3ccccc32)C(C(=O)NCc2ccco2)c2cccs2)cc1` (stereo unspecified), the cell number change is reported as -23.9% and the AC50 [1] is reported as 0.651 µM [rising, full curve, poor fit].

For `C#CC(CO)N(CCN(Cc1ccccc1)C(C#C)CO)Cc1ccccc1` (stereo unspecified), the cell number change was -17% and the AC50 [1] was 10.3 µM [falling, partial curve, poor fit].

For `COc1cc(OC)cc(-n2nnnc2SCC(=O)Nc2ccc(C(C)=O)cc2)c1`, the AC50 [1] was 0.58 µM [rising, single point].

For `O=C(N/N=C/C1CC=CCC1)c1cc(-c2cccnc2)nc2ccccc12` (stereo unspecified), the cell number change was 82.4% and the AC50 [2] was 18.4 µM [rising, partial curve].

With `COc1cc([N+](=O)[O-])ccc1NC(=O)CC1SC(=Nc2ccc(F)cc2)N(CCC2=CCCCC2)C1=O` (stereo unspecified) the AC50 [1] was 16.4 µM [falling, partial curve].

For `COc1cc(/C=C/C(=O)O)cc(S(=O)(=O)Nc2ccc3nc(C)sc3c2)c1OC`, the cell number change was -31.1% and the AC50 [2] was 29.1 µM [falling, single point].

With `COc1cc(OC)c(C2CC(=O)N3CN(c4ccccc4C)CSC3=C2C#N)cc1OC` (stereo unspecified) the AC50 [1] was 20.6 µM [rising, single point].

For `Cc1ccc(C(=O)Oc2ccc([N+](=O)[O-])cc2)cc1S(=O)(=O)N1CCCCCC1`, the cell number change was -5.52% and the AC50 [1] was 29.1 µM [falling, single point].

With `O=C1c2ccccc2C(=O)N1CCc1nc(-c2ccc(Cl)cc2)no1` the cell number change was 12.8%.

For `Cn1c(CNC(=O)c2ccccc2F)nnc1SCC(=O)NCc1ccccc1`, the cell number change was -30.9% and the AC50 [1] was 6.51 µM [falling, single point].

For `CN(C)CCCN(C(=O)c1ccc(C(=O)c2ccccc2)cc1)c1nc2cc3c(cc2s1)OCCO3`, the cell number change was -0.348% and the AC50 [1] was 0.92 µM [rising, full curve, poor fit].

In the case of `CCN1CCN(C(=O)c2ccc(C(F)(F)F)cc2)CC1`, the cell number change is reported as -48.7%, the AC50 [2] is reported as 25.1 µM [falling, single point] and the AC50 [1] is reported as 35.5 µM [falling, single point].

For `Cc1ccc(C(=O)c2c3ccc(C(F)(F)F)cc3[n+]([O-])n2CCCC(N)=O)cc1`, the cell number change was -12% and the AC50 [1] was 0.517 µM [falling, partial curve, poor fit].

For `CC(C)n1c(SCC(=O)Nc2nncs2)nnc1-c1ccco1`, the cell number change was -2.31% and the AC50 [1] was 6.51 µM [falling, partial curve, poor fit].

For `Cc1cc(C)c(OCCCNCc2ccccc2)c(Br)c1`, the cell number change was 5.28% and the AC50 [1] was 29.1 µM [rising, single point].

For `c1coc(Cn2c(SCc3nc4ccccc4[nH]3)nnc2-c2cnccn2)c1`, the cell number change was 83.1%, the AC50 [2] was 0.82 µM [rising, full curve] and the AC50 [1] was 0.092 µM [rising, single point].

For `O=C(/C=C/c1cccnc1)/C=C/c1cccnc1`, the cell number change was -69.9%, the AC50 [2] was 5.8 µM [falling, full curve] and the AC50 [1] was 2.91 µM [falling, full curve].

For `COc1cccc(NC(=O)CCNC(=O)C2CCN(S(=O)(=O)c3ccc(F)cc3)CC2)c1`, the cell number change was 43.6%, the AC50 [2] was 6.51 µM [rising, full curve, poor fit] and the AC50 [1] was 16.4 µM [rising, single point].

With `COc1ccc(NC(=S)/N=C(\N)Nc2nc(C)c3ccc(C)cc3n2)cc1` the cell number change was -3.69% and the AC50 [2] was 4.11 µM [rising, single point].

`COC(=O)c1cc(-c2ccc3c(c2)OCO3)nc2ccccc12` showed a cell number change of -26.3%.

With `COc1ccccc1C(=O)Nc1ccc2c3c(cccc13)CC2` the cell number change was 34.5%, the AC50 [2] was 4.11 µM [rising, partial curve, poor fit] and the AC50 [1] was 2.59 µM [rising, partial curve].

In the case of `COc1ccc(/C=C2\SC(N3CCc4ccccc4C3)=NC2=O)cc1`, the cell number change is reported as -9.91%, the AC50 [2] is reported as 6.51 µM [rising, partial curve, poor fit] and the AC50 [1] is reported as 6.51 µM [rising, partial curve].

For `C/C(Nc1ccc(C)cc1)=C(/C#N)C(N)=O`, the cell number change was 73.1% and the AC50 [1] was 6.51 µM [falling, partial curve].

With `O=C1CCCN1CCCNc1ccc2nnc(CCC(=O)N3CCN(c4ccc(F)cc4)CC3)n2n1` the AC50 [1] was 6.51 µM [falling, partial curve, poor fit].

In the case of `COc1cccc(-c2nc(C(=O)NCC3CCCO3)cc3c2[nH]c2ccccc23)c1` (stereo unspecified), the cell number change is reported as -12.3% and the AC50 [1] is reported as 29.1 µM [falling, single point].

With `Cc1ccc(-c2nnn(CCC(=O)Nc3ccc4c(c3)OCO4)n2)cc1` the cell number change was -23.4% and the AC50 [1] was 13 µM [rising, partial curve].

Molecule `CC(CCc1ccco1)NC(=O)Cn1nc(Cc2ccncc2)c2ccccc2c1=O` (stereo unspecified) has a cell number change of -13.7%.

For `O=C(CCN1C(=O)/C(=C/c2ccc(F)cc2)SC1=S)N[C@@H](CO)Cc1ccccc1`, the AC50 [1] was 29.1 µM [falling, partial curve].

In the case of `CCC(Sc1nc2ccccc2s1)C(=O)Nc1nnc(C)s1` (stereo unspecified), the cell number change is reported as 8.45% and the AC50 [1] is reported as 29.1 µM [rising, single point].

`CN(C(=O)COC(=O)CSc1ccc(C(N)=O)cc1[N+](=O)[O-])C1CCCCC1` showed a cell number change of -4.04%.

In the case of `CCOC(=O)c1c(NC(=O)COC(=O)Cn2c(C)nc3ccccc32)sc2c1CCCC2`, the cell number change is reported as -5.29%, the AC50 [2] is reported as 0.259 µM [falling, full curve, poor fit] and the AC50 [1] is reported as 0.411 µM [falling, partial curve].

With `COc1ccc(NC(=O)Cn2nnc(C(=O)NCc3ccc(C)cc3)c2N)cc1OC` the cell number change was -1.53% and the AC50 [1] was 29.1 µM [rising, single point].

With `Cn1c(=O)[nH]c(=O)c2c1nc(Sc1ccccc1)n2CCc1ccccc1` the cell number change was -11.1% and the AC50 [1] was 1.16 µM [falling, partial curve].

With `CCCN(CCC)c1nc(N)c(C#N)c(CC#N)c1C#N` the AC50 [2] was 6.51 µM [rising, single point].

With `O=C1NC(=O)/C(=C/c2ccco2)N1` the cell number change was -0.481% and the AC50 [1] was 3.66 µM [rising, full curve].

For `CCOP(=O)(OCC)/C(C#N)=C/c1cc(OC)ccc1OC`, the cell number change was -55.9% and the AC50 [2] was 1.3 µM [falling, full curve, poor fit].

With `CC1=CN2CC(O)CN=C2C=C1` (stereo unspecified) the cell number change was -2.6% and the AC50 [2] was 0.146 µM [rising, full curve, poor fit].
